PubChem BioAssay AID504786, Drosophila RNAi Screening Center | 2011
The deposit covers about 21,000 reagents; below is an unselected part of those with a known target gene and a result. 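Primary screen; positive scores mean lost reporter signal, so the sign may be inverted from the usual convention.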 A plus sign joins genes that one reagent is predicted to hit. Further read-outs or replicates are left out here.

Test: 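Knock-downs reducing HIF reporter induction by the iron chelator DFO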 (primary screen)
Cells: Drosophila S2 cells with a stable HIF luciferase reporter
Reagents: long dsRNA against Drosophila genes, about 0.2 µg dsRNA per well of a 384-well plate
Duration: three days of knock-down, then 20 h of DFO before reading
Conditions: desferrioxamine (DFO) at 100 µM, an iron chelator that mimics hypoxia, for 20 h
Detection: 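HIF reporter luminescence in cells given 100 µM DFO for 20 h, using the mouse ldh-a hypoxia-response element, scored as per-plate z-scores; higher means greater loss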
Direction: z-score: higher = stronger loss of HIF reporter signal

| Gene | PubChem SID | z-score, replicate 1 |
| --- | --- | --- |
| CG3618 (GeneID 40303) | SID104191538 | -0.1 |
| mmd (GeneID 32561) | SID104199464 | 0 |
| mmd (GeneID 32561) | SID104199465 | -0.1 |
| mmd (GeneID 32561) | SID104199953 | -0.3 |
| Su(z)2 (GeneID 36432) | SID104187350 | 2 |
| spict (GeneID 34681) | SID104181949 | -0.3 |
| r-cup (GeneID 33075) | SID104200267 | -0.3 |
| tai (GeneID 34242) | SID104181999 | -0.3 |
| tai (GeneID 34242) | SID104182465 | -0.3 |
| CG14052 (GeneID 31203) | SID104197699 | -0.2 |
| CG14052 (GeneID 31203) | SID104197984 | -0.4 |
| Osi21 (GeneID 34566) | SID104182200 | -0.3 |
| CG34292 (GeneID 5740196) | SID104193599 | -0.3 |
| CG34325 (GeneID 32656) | SID104199594 | -0.2 |
| CG34325 (GeneID 32656) | SID104199992 | -0.2 |
| run (GeneID 33059) | SID104200376 | -0.2 |
| CG15376 (retired record) (GeneID 31354) | SID104197838 | -0.3 |
| CG10730 (GeneID 35291) | SID104181894 | -0.3 |
| ctp (GeneID 31405) | SID104198550 | 0.8 |
| Bem46 (GeneID 44441) | SID104180067 | -0.2 |
| DCTN3-p24 (GeneID 46074) | SID104184384 | -0.3 |
| Oct-TyrR (GeneID 42452) | SID104191675 | -0.2 |
| CG3650 (GeneID 37974) | SID104184193 | -0.3 |
| Als2 (GeneID 40410) | SID104191598 | -0.3 |
| CG9095 (GeneID 32447) | SID104199942 | 0.1 |
| Liprin-gamma (GeneID 37552) | SID104183885 | -1 |
| CG14818 (GeneID 31147) | SID104198340 | -0.4 |
| RabX2 (GeneID 31971) | SID104198026 | -0.2 |
| alphaTub84D (GeneID 40904) | SID104192415 | 0.8 |
| CG14715 (GeneID 41403) | SID104194730 | -0.3 |
| PIG-F (GeneID 40139) | SID104190861 | -0.3 |
| CG10660 (GeneID 39422) | SID104189561 | 8.6 |
| alphaTub85E (GeneID 41183) | SID104196691 | 2.8 |
| moi + Tgs1 | SID104196163 | -0.9 |

An excerpt of the results above:
| Gene | PubChem SID | z-score, replicate 1 |
| --- | --- | --- |
| RabX2 (GeneID 31971) | SID104198026 | -0.2 |
| alphaTub84D (GeneID 40904) | SID104192415 | 0.8 |
| CG14715 (GeneID 41403) | SID104194730 | -0.3 |
| PIG-F (GeneID 40139) | SID104190861 | -0.3 |
